# This list was built around the results that the source calls inconclusive (neither active nor inactive); the mix of calls is not that of the screen. A potency beside an inconclusive call is a rough fit, not a confirmed value. Active and inactive are the calls of the source. The call rests on the fitted dose curve; in most records, active means well fitted inhibition curve with a large enough effect; inconclusive means small, poorly fitted or top-dose-only effect; inactive means flat fitted curve, though single readings scatter.
# Molecular target: Luciferin 4-monooxygenase (Photuris pensylvanica) (UniProt Q27757)
# Assay: Secondary Assay for Luciferase (Kinase-Glo TM) Inhibition Counterscreen;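 on activity, negative = inhibition: 0% = DMSO only and -100% = 40 µM SIB 1757 full inhibition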
# Settings: Kinase-Glo luciferase enzyme, luminescence; series mostly up to 58.1 µM; activity, negative = inhibition: at the top concentration
# Experimental: NIH Chemical Genomics Center [NCGC] Malcolm Walkinshaw, Hugh Morgan, Linda Gilmore University of Edinburgh, UK MLPCN Grant: 1 R03 MH085697-01 NCGC Assay Overview: Luciferase (Kinase-Glo, Promega Corporation) was assayed for its ability to generate light using ATP and luciferin as substrates. The ATP concentration in the assay (10 uM) was within the linear range of enzyme activity for the assay conditions used. This assay was used as an counter screen for human pyruvate kinase M2 isoform.
# NCGC Assay Protocol Summary: Four uL of substrate mix (final concentration, 50 mM imidazole pH 7.2, 50 mM KCl, 7 mM MgCl2, 10 uM ATP, 0.01% Tween 20, 0.05% BSA) was dispensed into white 1536 well plates. Twenty-three nL of compound was delivered by a pin tool and 2 uL of luciferase detection mix (Kinase-Glo, Promega)) was added. Following 8-minute incubation at ambient temperature, luminescence was measured by a ViewLux (Perkin Elmer) at 5 seconds exposure/plate. Data were normalized to the controls for basal activity (DMSO only) and 100% inhibition (40 uM SIB 1757) and curve fitting was performed using Hill equation.
# Potency means the concentration at half of the fitted maximal effect.
SMILES,Potency,"activity, negative = inhibition"
Cc1ccnc(NC(=O)c2cc3ccccc3oc2=O)c1,"inconclusive: 6.51 µM [falling, partial curve]",–
CCOC(=O)Cc1csc(NC(=S)NC(=O)c2ccc([N+](=O)[O-])cc2)n1,–,inactive: 1.5%
O=C1c2ccccc2C(=O)N1Cc1ccccn1,–,inactive: -3.08%
CN(C)c1ccc(N=Nc2nc3ccccc3n2C)cc1,active: 9.19 µM,–
Nc1ccc2nc(-c3ccccc3)sc2c1,active: 11.6 µM,–
CCOc1ccc(OCC(=O)Nc2nccs2)cc1,"inconclusive: 11.6 µM [falling, partial curve]",–
Cc1ccc(NS(=O)(=O)c2ccc3c(c2)CCC(=O)N3)cc1C,–,inactive: -1.08%
Cc1ccc(-n2[nH]c(C)c(/C=N/c3ccccn3)c2=O)cc1,"inconclusive: 29.1 µM [falling, partial curve]",–
COc1cccc(-c2nc3ccccc3s2)c1,"inconclusive: 18.3 µM [falling, partial curve]",–
O=C(c1ccccc1)c1cc2ccc(O)cc2oc1=O,"inconclusive: 16.3 µM [falling, partial curve]",–
CC(=O)Oc1ccc(-c2nc(-c3cccnc3)no2)cc1,"inconclusive: 18.3 µM [falling, partial curve]",–
c1ccc2nc(-c3nc4ccccc4[nH]3)ccc2c1,active: 5.8 µM,–
COc1cccc(/C=N/NC(=O)c2ccoc2C)c1O,"inconclusive: 10.3 µM [falling, partial curve]",–
O=C1CCc2cc(S(=O)(=O)Nc3ccc4ccccc4c3)ccc2N1,–,inactive: -2.13%
COc1ccc(-c2cc3nc(C)cc(N)n3n2)cc1,"inconclusive: 5.8 µM [falling, partial curve]",–
COC(=O)c1sc(NC(=O)c2ccoc2C)nc1C,"inconclusive: 14.6 µM [falling, partial curve]",–
O=C(Nc1cccc(O)c1)C(=O)Nc1ccccn1,active: 20.6 µM,–
Cc1ccc(NS(=O)(=O)c2cc3c(cc2-c2ccco2)NC(=O)CO3)cc1C,–,inactive: 3.64%
O=C(/C=C/Nc1ccc(Oc2ccccc2)cc1)c1ccco1,"inconclusive: 20.6 µM [falling, partial curve]",–
Cc1ccc(C)c(OC2=NS(=O)(=O)c3ccccc32)c1,inactive,–
Cc1nc(N/N=C/c2ccccn2)sc1C,active: 5.8 µM,–
Cc1ccc(C(=O)O/N=C(\N)c2ccccc2)c(Cl)c1,"inconclusive: 7.3 µM [falling, full curve]",–
Cn1cc(Cl)c(C(=O)Nc2nc3ccccc3s2)n1,"inconclusive: 14.6 µM [falling, partial curve]",–
Cc1cc(O)c(-c2cc(O)c(C)cc2O)cc1O,–,inactive: -3.34%
COc1cccc(N2C(=O)c3ccccc3C2=O)n1,–,inactive: -2.44%
COc1ccc(-c2cn3ccccc3n2)cc1OC,"inconclusive: 14.6 µM [falling, partial curve]",–
Cn1c(-c2ccc(Br)o2)nc2ccccc21,active: 10.3 µM,–

# Complete entries as entered above.
# O=C(c1ccccc1)c1cc2ccc(O)cc2oc1=O as listed: Potency: inconclusive: 16.3 µM [falling, partial curve]
# O=C(Nc1cccc(O)c1)C(=O)Nc1ccccn1 as listed: Potency: active: 20.6 µM

# From PubChem BioAssay AID2530 (National Center for Advancing Translational Sciences (NCATS), 2010)
